Drawing on doi:10.1101/2022.06.20.496767, this text covers binding for two molecules.

Protein sequences, listed by entry. Tags and fused reporters are not part of them.
UniProt Q6Q1P4: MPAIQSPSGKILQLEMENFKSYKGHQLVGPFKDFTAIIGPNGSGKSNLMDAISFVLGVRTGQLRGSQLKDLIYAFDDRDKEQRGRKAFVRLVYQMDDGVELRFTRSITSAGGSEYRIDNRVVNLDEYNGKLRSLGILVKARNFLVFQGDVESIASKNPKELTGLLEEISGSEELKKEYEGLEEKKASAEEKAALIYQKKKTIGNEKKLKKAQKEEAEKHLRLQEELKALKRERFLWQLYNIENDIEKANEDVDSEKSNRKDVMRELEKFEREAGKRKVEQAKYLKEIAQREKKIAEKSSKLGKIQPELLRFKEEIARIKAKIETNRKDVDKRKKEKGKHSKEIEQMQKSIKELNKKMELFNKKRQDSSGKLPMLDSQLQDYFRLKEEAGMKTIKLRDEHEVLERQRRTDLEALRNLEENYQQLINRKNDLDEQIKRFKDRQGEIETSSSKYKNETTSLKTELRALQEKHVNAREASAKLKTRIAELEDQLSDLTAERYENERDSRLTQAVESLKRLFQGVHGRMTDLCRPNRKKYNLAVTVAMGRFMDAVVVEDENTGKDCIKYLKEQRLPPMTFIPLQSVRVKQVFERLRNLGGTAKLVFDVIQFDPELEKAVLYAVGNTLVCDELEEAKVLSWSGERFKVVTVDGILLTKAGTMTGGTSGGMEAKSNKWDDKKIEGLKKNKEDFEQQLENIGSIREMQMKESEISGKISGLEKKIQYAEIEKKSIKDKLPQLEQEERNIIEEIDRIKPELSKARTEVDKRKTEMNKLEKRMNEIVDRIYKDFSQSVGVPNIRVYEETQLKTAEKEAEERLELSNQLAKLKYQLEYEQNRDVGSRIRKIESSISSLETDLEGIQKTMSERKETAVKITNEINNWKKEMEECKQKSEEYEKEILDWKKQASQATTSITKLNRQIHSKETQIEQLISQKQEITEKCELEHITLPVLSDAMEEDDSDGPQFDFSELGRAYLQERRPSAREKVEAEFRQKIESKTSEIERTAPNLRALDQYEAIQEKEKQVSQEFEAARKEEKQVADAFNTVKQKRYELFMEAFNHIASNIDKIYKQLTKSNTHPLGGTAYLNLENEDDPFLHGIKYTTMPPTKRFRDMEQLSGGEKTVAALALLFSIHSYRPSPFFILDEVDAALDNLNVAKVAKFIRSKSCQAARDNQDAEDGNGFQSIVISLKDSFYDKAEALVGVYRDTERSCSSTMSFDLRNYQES

These are yes or no findings as the source states them, for the method shown. In cells and extracts the contact can be indirect. A yes stands for co-enrichment or nearness to the bait. Other partners may have been found. Where a sequence is shown, tags or fusion partners need not be part of it.

In the test the target is T1, GFP:RAD21.2 (PRO_(ASK1):GFP:RAD21.2) (Arabidopsis thaliana) (UniProt Q9FQ19).
T1 sequence: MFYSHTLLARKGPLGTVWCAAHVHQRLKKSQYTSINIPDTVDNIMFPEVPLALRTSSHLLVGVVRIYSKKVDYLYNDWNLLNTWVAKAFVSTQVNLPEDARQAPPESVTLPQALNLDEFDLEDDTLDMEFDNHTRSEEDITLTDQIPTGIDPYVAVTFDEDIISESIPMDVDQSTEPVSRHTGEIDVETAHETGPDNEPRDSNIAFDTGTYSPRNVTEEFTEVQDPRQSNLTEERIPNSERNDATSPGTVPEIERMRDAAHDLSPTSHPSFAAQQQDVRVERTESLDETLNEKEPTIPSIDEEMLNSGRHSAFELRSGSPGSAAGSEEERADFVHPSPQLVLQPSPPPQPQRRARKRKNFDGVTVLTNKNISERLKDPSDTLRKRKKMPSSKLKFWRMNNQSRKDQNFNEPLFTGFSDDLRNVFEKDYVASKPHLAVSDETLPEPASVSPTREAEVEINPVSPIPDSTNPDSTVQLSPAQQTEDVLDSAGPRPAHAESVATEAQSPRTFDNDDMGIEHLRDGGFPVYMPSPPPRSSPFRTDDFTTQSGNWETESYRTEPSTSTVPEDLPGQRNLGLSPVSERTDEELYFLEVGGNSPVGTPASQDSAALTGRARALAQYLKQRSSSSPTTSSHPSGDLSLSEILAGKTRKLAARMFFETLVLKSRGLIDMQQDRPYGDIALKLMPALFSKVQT
As to the kind of experiment: affinity purification with mass spectrometry.

With “SMC1 (endogenous) (from UniProt Q6Q1P4 1-1218)”, the binding entry is reported as “binds”.

B1: SMC3 (endogenous) (protein, UniProt Q56YN8 1-1204)
chain: MFIKQVIIEGFKSYKEQVATEEFSNKVNCVVGANGSGKSNFFHAIRFVLSDIYQNLRSEDRHALLHEGAGHQVVSAFVEIVFDNSDNRFPVDKEEIRLRRTVGLKKDDYFLDGKHITKGEVMNLLESAGFSRANPYYVVQQGKIASLTLMKDIERLDLLKEIGGTRVYEERRRESLRIMQETGNKRKQIIEVVHYLDERLRELDEEKEELRKYQQLDKQRKSLEYTIYDKELHDAREKLEQVEVARTKASEESTKMYDRVEKAQDDSKSLDESLKELTKELQTLYKEKETVEAQQTKALKKKTKLELDVKDFQDRITGNIQSKNDALEQLNTVEREMQDSLRELEAIKPLYESQVDKENQTSKRINELEKTLSILYQKQGRATQFSNKAARDKWLRKEIEDLKRVLDSNTVQEQKLQDEILRLNTDLTERDEHIKKHEVEIGELESRISKSHELFNTKKRERDEEQRKRKEKWGEESQLSSEIDKLKTELERAKKNLDHATPGDVRRGLNSIRRICADYRINGVFGPLVELVDCDEKFFTAVEVTAGNSLFNVVVENDDISTKIIRHLNSLKGGRVTFLPLNRIKAPRVNYPKDSDAIPLLKKLKFDSKFEPALGQVFGRTVVCRDLNVATRVAKNDDLDCITMEGDQVSRKGGMTGGFYDHRRSKLRFMNIIMQNTKSINEKEKELEDVRRQLQVIDQQITQLVTEQQRLEADWTLCKLQVEQLKQEIANANKQKHAIHKAIEYKEKLLGDIRTRIDQVRSSMSMKEAEMGTELVDHLTPEEREQLSKLNPEIKDLKEKKFAYQADRIERETRKAELEANIATNLKRRITELQATIASIDDDSLPSSAGTKEQELDDAKLSVNEAAKELKSVCDSIDEKTKQIKKIKDEKAKLKTLEDDCKGTLQDLDKKLEELFSLRNTLLAKQDEYTKKIRGLGPLSSDAFDTYKRKNIKELQKMLHRCSEQLQQFSHVNKKALDQYVNFTEQREELQNRQAELDAGDEKIKELITVLDQRKDESIERTFKGVAHHFRDVFSELVQDGYGNLIIMKKKDLDNDDEDDDDDDGGREAVTEGRVEKYIGVKVKVSFTGQGETQLMKQLSGGQKTVVALALIFAIQRCDPAPFYLFDEIDAALDPQYRTAVGNLIRRLADDYGTQFITTTFRPELVRVADKIYGVFHKNRVSIVNVISKDQALDFIEKDQSHDT
As for B1, the binding entry is listed as “binds”.
